These are yes or no findings as the source states them, for the method shown. Binding seen in cells or lysates may run through a third protein. Binding can be weak; no strength is given. Tags and fused reporters may be left off the sequences shown.

The assay deals with FGF receptor (FGFR1). The experiment in a line: co-immunoprecipitation from lysates of co-transfected 293T cells: IP with anti-MYC tag antibody, western blot with anti-FGF receptor antibody. (In general: In western blotting, separated proteins are transferred to a membrane and probed.)

B1: MYC tagged SEF-FL (full length human SEF in PCDNA4 VERSION A expression plasmid) (receptor, not shown: small tags and cut ends)
chain: ADTCGWRGVGPASRNSGLYNITFKYDNCTTYLNPVGKHVIADAQNITISQYACHDQVAVTILWSPGALGIEFLKGFRVILEELKSEGRQCQQLILKDPKQLNSSFKRTGMESQPFLNMKFETDYFVKVVPFPSIKNESNYHPFFFRTRACDLLLQPDNLACKPFWKPRNLNISQHGSDMQVSFDHAPHNFGFRFFYLHYKLKHEGPFKRKTCEQEQTTEMTSCLLQNVSPGDYIIELVDDTNTTRKVMHYALKPVHSPWAGPIRAVAITVPLVVISAFATLFTVMCRKKQQENIYSHLDEESSESSTYTAALPRERLRPRPKVFLCYSSKDGQNHMNVVQCFAYFLQDFCGCEVALDLWEDFSLCREGQREWVIQKIHESQFIIVVCSKGMKYFVDKKNYKHKGGGRGSGKGELFLVAVSAIAEKLRQAKQSSSAALSKFIAVYFDYSCEGDVPGILDLSTKYRLMDNLPQLCSHLHSRDHGLQEPGQHTRQGSRRNYFRSKSGRSLYVAICNMHQFIDEEPDWFEKQFVPFHPPPLRYREPVLEKFDSGLVLNDVMCKPGPESDFCLKVEAAVLGATGPADSQHESQHGGLDQDGEARPALDGSAALQPLLHTVKAGSPSDMPRDSGIYDSSVPSSELSLPLMEGLSTDQTETSSLTESVSSSSGLGEEEPPALPSKLLSSGSCKADLGCRSYTDELHAVAPL
On to B1, for which the binding result is given as “binds”.

The values are drawn from US20040235104A1.
